Tested on: MCF7 cells
Experiment: Ingenuity Pathway Analysis of the proteomics datasets
Set-up: species or system Human
Details: 10 µM, 48 hours vs vehicle
[1] = IPA biological function, Cell Cycle, DNA Replication, Recombination, and Repair
[2] = IPA biological function, Cell Morphology, Cellular Function and Maintenance, DNA Replication, Recombination, and Repair
[3] = IPA biological function, Cell Morphology
[4] = IPA biological function, Cellular Assembly and Organization
[5] = IPA biological function, Cellular movement

## COc1cc(-n2c(=S)[nH]c3ccccc3c2=O)c(Cl)cc1Cl [mDIVI1, 3-(2,4-Dichloro-5-methoxyphenyl) 2,3-dihydro 2-thioxo-4(1H) quinazolinone]
IPA biological function, Cell Cycle, Cellular Movement
  Activation z-score, Cytokinesis: −0.669
[1]
  Activation z-score, Homologous recombination: −1.387
  Activation z-score, Homologous recombination of cells: −1.732
  Activation z-score, Recombination of cells: −1.732
IPA biological function, Cell Cycle
  Activation z-score, Cell cycle progression: −1.762
IPA biological function, Cell Death and Survival
  Activation z-score, Cell viability: −2.813
[2]
  Activation z-score, Double-stranded DNA break repair of cells: 2.069
  Activation z-score, Repair of cells: 1.921
[3]
  Activation z-score, Cell spreading: −1.633
  Activation z-score, Shape change of tumour cell lines: −1.446
[4]
  Activation z-score, Formation of cytoskeleton: 1.95
  Activation z-score, Formation of nucleus: −2
IPA biological function, Cellular Function and Maintenance
  Activation z-score, Endocytosis: −1.832
[5]
  Activation z-score, Cell movement: −1.295
  Activation z-score, Cell movement of breast cancer cell lines: −1.968
  Activation z-score, Cell movement of tumour cell lines: −1.628
  Activation z-score, Invasion of cells: −1.806
  Activation z-score, Invasion of tumour cell lines: −1.652
  Activation z-score, Migration of tumour cell lines: −1.164
IPA biological function, DNA Replication, Recombination, and Repair
  Activation z-score, Double-stranded DNA break repair: 2.123
IPA biological function, Gene Expression
  Activation z-score, Transcription: 1.993
IPA canonical pathway
  Ratio, AMPK Signaling: 0.101
  Ratio, Actin Cytoskeleton Signaling: 0.176
  Ratio, Actin Nucleation by ARP-WASP Complex: 0.196
  Ratio, Agranulocyte Adhesion and Diapedesis: 0.0857
  Ratio, Apoptosis Signaling: 0.114
  Ratio, Assembly of RNA Polymerase I Complex: 0.333
  Ratio, Axonal Guidance Signaling: 0.0703
  Ratio, CDK5 Signaling: 0.0918
  Ratio, Calcium Signaling: 0.1
  Ratio, Caveolar-mediated Endocytosis Signaling: 0.239
  Ratio, Cdc42 Signaling: 0.109
  Ratio, Cell Cycle Control of Chromosomal Replication: 0.185
  Ratio, Clathrin-mediated Endocytosis Signaling: 0.143
  Ratio, Cleavage and Polyadenylation of Pre-mRNA: 0.333
  Ratio, DNA Double-Strand Break Repair by Non-Homologous End Joining: 0.357
  Ratio, DNA Methylation and Transcriptional Repression Signaling: 0.2
  Ratio, Death Receptor Signaling: 0.11
  Ratio, EIF2 Signaling: 0.173
  Ratio, ERK/MAPK Signaling: 0.0909
  Ratio, Ephrin Receptor Signaling: 0.0872
  Ratio, Epithelial Adherens Junction Signaling: 0.189
  Ratio, Estrogen Receptor Signaling: 0.125
  Ratio, FAK Signaling: 0.153
  Ratio, Fatty Acid Biosynthesis Initiation II: 1
  Ratio, GM-CSF Signaling: 0.11
  Ratio, Gap Junction Signaling: 0.0854
  Ratio, Germ Cell-Sertoli Cell Junction Signaling: 0.183
  Ratio, ILK Signaling: 0.161
  Ratio, Integrin Signaling: 0.156
  Ratio, Ketolysis: 0.286
  Ratio, Leukocyte Extravasation Signaling: 0.122
  Ratio, Mevalonate Pathway I: 0.25
  Ratio, Mitotic Roles of Polo-Like Kinase: 0.206
  Ratio, PAK Signaling: 0.11
  Ratio, Palmitate Biosynthesis I: 1
  Ratio, Paxillin Signaling: 0.2
  Ratio, Pentose Phosphate Pathway: 0.3
  Ratio, Phagosome maturation: 0.178
  Ratio, Protein Kinase A Signaling: 0.0775
  Ratio, Protein Ubiquitination Pathway: 0.114
  Ratio, RAN Signaling: 0.25
  Ratio, Rac Signaling: 0.112
  Ratio, Regulation of Actin-based Motility by Rho: 0.207
  Ratio, Regulation of Cellular Mechanics by Calpain Protease: 0.236
  Ratio, Regulation of eIF4 and p70S6K Signaling: 0.175
  Ratio, Remodeling of Epithelial Adherens Junctions: 0.348
  Ratio, RhoA Signaling: 0.158
  Ratio, RhoGDI Signaling: 0.134
  Ratio, Role of BRCA1 in DNA Damage Response: 0.179
  Ratio, Sertoli Cell-Sertoli Cell Junction Signaling: 0.156
  Ratio, Signaling by Rho Family GTPases: 0.102
  Ratio, Superpathway of Cholesterol Biosynthesis: 0.222
  Ratio, Telomere Extension by Telomerase: 0.267
  Ratio, Tight Junction Signaling: 0.175
  Ratio, Unfolded protein response: 0.132
  Ratio, mTOR Signaling: 0.123
  Z score, Actin Nucleation by ARP-WASP Complex: −1.51
  Z score, ERK/MAPK Signaling: −0.47
  Z score, Mitotic Roles of Polo-Like Kinase: 0.82
  Z score, Protein Kinase A Signaling: −1.61
  Z score, Regulation of Cellular Mechanics by Calpain Protease: −2.24
Ingenuity Toxicity Lists
  Ratio, Cholesterol Biosynthesis: 0.312
  Ratio, Decreases Permeability Transition of Mitochondria and Mitochondrial Membrane: 0.429
  Ratio, Fatty Acid Metabolism: 0.133

From article PMC5862576, “Mitochondrial fission as a driver of stemness in tumor cells: mDIVI1 inhibits mitochondrial function, cell migration and cancer stem cell (CSC) signalling” (Oncotarget, 2018)
